Values quoted from earlier work as cited in patent US10688111B2, “Liquid formulations of compounds active at sulfonylurea receptors” (Biogen Chesapeake LLC, priority 2008, dated 2020).
Some entries share one result that the patent states for a list of compounds.

Conditions: reported to be sparingly soluble; cited from earlier work

Q: With `CCCCNC(=O)NS(=O)(=O)c1ccc(C)cc1` [tolbutamide] as the molecule, how does the “solubility in water (reported)” value read?
A: less than 0.04 mg/ml
